Laboratory results: doi:10.1101/334953

Biological target: T1, sfGFP-Pi (P-cell-specific homeobox protein Pi, N-terminally tagged with sfGFP) (Schizosaccharomyces pombe) (UniProt P10842)
T1 sequence: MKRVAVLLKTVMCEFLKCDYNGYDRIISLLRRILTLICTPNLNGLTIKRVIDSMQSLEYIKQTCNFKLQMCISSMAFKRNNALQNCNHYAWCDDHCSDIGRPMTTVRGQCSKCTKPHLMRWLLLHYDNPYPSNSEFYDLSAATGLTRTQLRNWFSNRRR
Test: co-IP

- binding: binds
Substance: Mi-mCherry (M-cell-specific peptide Mi, C-terminally tagged with mCherry) (Schizosaccharomyces pombe)

Results are given in words; binding and its absence hold for the method and conditions named. In cells and extracts the contact can be indirect. A result given as binding can be weak or reduced; the word gives no strength. Sequences can lack the tags named with a protein.
